System: mouse heart
Test: Cardiac specific human ApoO transgenic mice (ApoO-Tg)
Format: in vivo
Source text: After ethical committee approval, all patients in this study gave written consent for sample collection and molecular analysis prior to inclusion. Patients were carefully selected by physicians from the Department of Cardiology, Toulouse University Hospital, prior to coronary by-pass surgery. Bioinformatics. Microarray expression data from human heart samples were downloaded from the GEO repository (GSE1145). This series consisted of 107 myocardial samples collected from patients undergoing cardiac transplantation whose failure arises from different etiologies (e.g. idiopathic dilated cardiomyopathy, ischemic cardiomyopathy, valvular cardiomyopathy, and hypertrophic cardiomyopathy) and from “normal” organ donors whose hearts cannot be used for transplants. Arrays were intensity normalized and hierarchical clustering (average group linkage, Pearson correlation, threshold r=0.8) was applied to identify groups of co-expressed genes. ApoO expression levels were plotted for the 107 human hearts tested and used to define relevant molecular pathways using both Toppgene and Ingenuity Pathway Analysis (Ingenuity systems, Redwood City, Calif., USA). ApoO subcellular localization was predicted using Mitopred, mitoprot and YLoc. Animals: All animal Studies followed the INSERM Institute Animal Facility guidelines and were approved by the animal care committees of the INSERM I2MC UMR 1048. All animal procedures were performed according to the guidelines of the French Ministry of Agriculture. Animals were housed at the Toulouse I2MC animal facility in a room lit 12 h per day (6 AM-6 PM) at an ambient temperature of 22+/−1° C. […] All ApoO sequences within the expression vectors were verified by DNA double strand sequencing using ABI PRISM®BigDye™ Terminator version 3.1 Ready reaction cycle sequencing kit (Life Technologies SAS, Villebon sur Yvette) and loaded on an ABI 3130XL DNA sequencing instrument (Life Technologies SAS, Villebon sur Yvette). […]

B1: ApoO: 198-amino acid apolipoprotein, SEQ ID NO: 1; tested by overexpression from expression vectors or transgene (protein, listed as Homo sapiens)
chain: MFKVIQRSVGPASLSLLTFKVYAAPKKDSPPKNSVKVDELSLYSVPEGQSKYVEEARSQLEESISQLRHYCEPYTTWCQETYSQTKPKMQSLVQWGLDSYDYLQNAPPGFFPRLGVIGFAGLIGLLLARGSKIKKLVYPPGFMGLAASLYYPQQAIVFAQVSGERLYDWGLRGYIVIEDLWKENFQKPGNVKNSPGTK
**Q.** For B1, which PR interval (cardiac specific ApoO-Tg mice, ECG) is on record?
**A.** Its PR interval is “lengthening”.

**Q.** And the “fractional shortening and ejection fractions” value (cardiac specific ApoO-Tg mice, echocardiography)?
**A.** The value was “reduction”.

**Q.** What about the ventricular function (hearts constitutively expressing human ApoO at less than 2 times endogenous) of the same molecule?
**A.** The ventricular function was “depressed ventricular function”.

— patent publication US10272135B2, “Apolipoprotein O and fragments thereof for inducing apoptosis in a cancerous cell” (INSERM (INSTITUT NATIONAL DE LA SANTÉ ET DE LA RECHERCHE …, priority 2014, dated 2019)
